This is one part of the list.
B1: il10ra_site1_sap_16_mot_HHH_b2_00262_000000269_0001_18_35_H_._0747388746a55ac07d1e89ee11861e50_0001_af2_0002_0001100025_0000002_0_0001 (protein)
chain: SSSSDQEEELLEAAIRLVEQALEWGDEELARMMIAAIEMLAREVGDEEAEEFVEKVKEKLSSSSS
B2: il10ra_site1_normal_mot_HHH_b1_00456_000000263_0001_1_17_H_._HHH_b1_02339_af2_0001_0000400034_0000002_0_af2pred_0001 (protein)
chain: SSSSSEEVKELLEELKKLVEEGDEEKFRELYIEIALLIAQLGDEELAHILTRLFAEFNRLHSSSS
B3: il10ra_site1_normal_mot_HHH_b1_03333_000000091_0001_1_17_H_._HHH_b1_02376_af2_0001_0001000012_0000001_0 (protein)
chain: SSSNEYELAREIIEEVAELLHKNDEERIEELLEELERLAHEKNNTAVESAINAIKIALEALSSSS
B4: il10ra_site1_sap_23_mot_HHH_b2_06795_000000133_0001_42_56_H_._HHH_b2_00160_af2_0001_0000900017_0000002_0_0001 (protein)
chain: SSSSSDDETERLYELSEEALRIDDPEEAEEVVQEAFELAEEAGNRVLLKNIRFLLEQLRSSSSSS
B5: il10ra_site1_normal_mot_HHH_b2_00273_000000062_0001_23_39_H_._HHH_b2_06821_0001_0000700082_0000001_0 (protein)
chain: SSSSEIEEYIEEVEERVRELVERGDTEEALQLLWEAAKLVAENNDEEALRILAELLRLVFRSSSS
B6: il10ra_site1_sap_24_mot_HHH_b2_07442_000000239_0001_40_54_H_._HHH_b2_00050_0001_0000800015_0000002_0_0001 (protein)
chain: SSSSTQEVLELAKRIFELLLRGNYEEAEELIEEALRLAEEEGSEQARFVLEHLLRTVRAELSSSS
B7: il10ra_site1_sap_18_mot_HHH_b1_05357_000000034_0001_23_39_H_._HHH_b2_08282_0001_0000300031_0000001_0_0001 (protein)
chain: SSSSDEEERLEELLRELEELIERNDDERFLEVALEVLRLAYRANDPEALRAVWELVRKAGSSSSS
B8: il10ra_site1_normal_mot_HHH_b1_02397_af2_000000085_0001_39_57_H_._HHH_b2_06748_af2_0001_0000600026_0000002_0 (protein)
chain: SSSSDREELAEEVERELEELAEEGDREEFARLAQEALRLAFRLSDPELLKRLWELVRKAASSSSS
B9: il10ra_site1_normal_mot_HHH_b1_02809_af2_000000277_0001_40_57_H_._HHH_b1_00088_0001_0000100004_0000001_0_af2pred_0001 (protein)
chain: SSSSDEAERSVRILLRAAERLIELGNPELAKLALRDAAIAAKDGNNEELLERVEKLLEELSSSSS
B10: il10ra_site1_sap_26_mot_HHH_b2_02757_000000230_0001_1_19_H_._HHH_b2_08066_0001_0000100007_0000001_1_0001_af2pred_0001 (protein)
chain: SSSSSSEEIVEKAAVRASEAKREGNPEEAERILEEAAEEVEKRGDRELVKLLEALLRLLKSSSSS
B11: il10ra_site1_normal_mot_ems_3hM_3349_000000016_0001_25_42_H_._f9c37336de6f1513c893807100b70f62_0001_af2_0001_0000400015_0000001_0 (protein)
chain: SVEELLEELLRQKLPPHEVKQILLALELQEKQAGDPKQALRALLAFLRLAGDPESAEVVEEVIRH
B12: il10ra_site1_sap_29_mot_HHH_b1_03613_af2_000000245_0001_1_20_H_._HHH_b2_04513_af2_0001_0000100001_0000002_1_0001_af2pred_0001 (protein)
chain: SSSSSSEERIRRTFRFAKFAIEQGDEEAAKLAIRFLEELAKQANDPEAEELVEELRELLSSSSSS
B13: il10ra_site1_normal_mot_HHH_b1_00999_000000080_0001_41_55_H_._HHH_b1_08189_0001_0000600028_0000001_1 (protein)
chain: SSSSSSREFIRLLQEAVRLAFRLSDEELLQALWRLAREWGEEGDEKYAEELQELIEEVGSSSSSS
B14: il10ra_site1_sap_19_mot_HHH_b1_06912_af2_000000235_0001_1_15_H_._HHH_b1_01587_0001_0000300023_0000001_0_0001_af2pred_0001 (protein)
chain: SSSSSAEERLEELLREIEEALEEGDHELVLKLLLEVSKFALKLGDHEITKRILELAKLLKSSSSS
B15: il10ra_site1_sap_18_mot_HHH_b2_00943_af2_000000149_0001_1_17_H_._HHH_b1_00930_af2_0001_0000200006_0000001_0_0001 (protein)
chain: SSSSSDVEEEVEELLERAEKIEDPDEWYRLLKEAIELASEANDPELFRLVMKVLHESLKGSSSSS
B16: il10ra_site1_normal_mot_HHH_b1_04015_af2_000000074_0001_1_17_H_._HHH_b1_02994_0001_0000400033_0000001_0 (protein)
chain: SSSSSDEYQEEVEELLERAEHIPDPEERYKLLKEAIQLAVEANDEELERLVIEVLRRLLHSSSSS
B17: il10ra_site1_sap_22_mot_1c3c3e46dde0d4e4be3ec3dd9add6289_0001_000000096_0001_34_50_H_._HHH_b1_00258_af2_0001_0000400016_0000001_0_0001 (protein)
chain: SSSSDEAYRLVKEAIEEALELWRNGNPEEARQLIEEVIEELRELGNWAAVWAAEHVLRVLRSSSS
B18: il10ra_site1_normal_mot_HHH_b2_00622_af2_000000153_0001_40_57_H_._HHH_b2_08153_af2_0001_0000100006_0000001_0_af2pred_dldesign_0_af2pred (protein)
chain: SSSSSEARALVRRSLAAARELLERGLPEEARKLVEYALELAKQAGDEELLAEAEALLAELESSSS
B19: il10ra_site1_sap_12_mot_HHH_b2_00984_000000042_0001_1_20_H_._HHH_b1_02095_af2_0001_0000200010_0000001_0_0001 (protein)
chain: SSSSSESDEIYELLQEALELRANGDPEEAREVLEEAERLAEEANNRLFRMQIRFVLKELESSSSS
B20: il10ra_site1_sap_21_mot_HHH_b1_04638_000000131_0001_21_38_H_._HHH_b1_01673_0001_0000100003_0000001_0_0001_af2pred_dldesign_0_af2pred (protein)
chain: SSSSSAEELTRQALRAARLALEAGDLEAARRALETARALAEKAGNAELLEEIAALERELESSSSS
B21: il10ra_site1_normal_mot_HHH_b1_07743_af2_000000164_0001_42_55_H_._HHH_b2_03069_af2_0001_0000200004_0000001_0 (protein)
chain: SSSSDLEEIVRRVAEALVEAARIDDEREVEELLEEAKQLAEEANNDILRAQIEFVEKLLNSSSSS
B22: il10ra_site1_sap_13_mot_HHH_b2_06864_af2_000000190_0001_1_20_H_._HHH_b2_05372_0001_0000100002_0000001_0_0001 (protein)
chain: SSSSSAEFLIRQALRAVELALKAGDPEEARRALKIAELLAEQAGDPEVREEVEEMEEQINSSSSS
B23: il10ra_site1_sap_16_mot_HHH_b2_00092_000000181_0001_22_39_H_._HHH_b2_04089_0001_0000300023_0000001_0_0001_af2pred_0001 (protein)
chain: SSSSSSERVKLSIRFAELLLEDGDPEAARFIIEAAQELAERDGDEELLEEAEELLREIESSSSSS
B24: il10ra_site1_sap_20_mot_HHH_b2_00475_000000002_0001_44_57_H_._HHH_b2_00229_0001_0000300039_0000002_0_0001 (protein)
chain: SSSSSSHEESQRVIELIRRAARIRDEEELKEVLEEARELAEELGSDVFRWQVEYLLRAQTSSSSS
B25: il10ra_site1_sap_26_mot_HHH_b1_01082_af2_000000031_0001_3_19_H_._ead7110553fcc56fee53bdb6698f5c61_0001_af2_0001_0000500012_0000001_0_0001 (protein)
chain: SSSSDEQQRVLELVLEAFRLLLRGNPEEAEKLLEEARELAEEAGDERILKMIEDLLRAINSSSSS
B26: il10ra_site1_normal_mot_HHH_b2_05454_000000273_0001_1_18_H_._HHH_b1_00039_af2_0001_0000900043_0000001_0 (protein)
chain: SSSSSSDIARLAAEAVRLALRLGDEEVFQRIWELFKRWAEEGDPRYEEELEELLEELRSSSSSSS
B27: il10ra_site1_sap_17_mot_HHH_b2_00137_af2_000000090_0001_1_17_H_._HHH_b1_04486_af2_0001_0000100004_0000001_1_0001_af2pred_0001 (protein)
chain: SSSSSDDQRVLRLLRRALKAIFRGNPEEVRELLEEAEEIARENNDEKLERAIEMVRHLLESSSSS
B28: il10ra_site1_sap_11_mot_HHH_b2_03438_af2_000000049_0001_18_34_H_._HHH_b1_03290_0001_0000200016_0000001_0_0001 (protein)
chain: SSSSDARREIYELLREAVELDHEGNPEEAEKVLEEAEELAREAGDRLFLHVVEYLQRVLNSSSSS
B29: il10ra_site1_normal_mot_HHH_b1_00814_af2_000000078_0001_43_57_H_._HHH_b2_06398_0001_0000300036_0000001_0_af2pred_dldesign_0_af2pred (protein)
chain: SSSSSSPAAVEVNRLLEEALKEEDPDKRFALIKKATQLAGDAEDGALLQKVAEVARKLLESSSSS
B30: il10ra_site1_normal_mot_HHH_b2_07440_af2_000000021_0001_1_18_H_._HHH_b1_07357_0001_0000500040_0000001_0 (protein)
chain: SSSSDEEEERILELSLEAFRLALRGNPEEAREVLEEALELAREAGNERAVEILEDLLQALSSSSS
B31: il10ra_site1_sap_24_mot_HHH_b2_03708_000000000_0001_1_18_H_._HHH_b1_01390_af2_0001_0000700015_0000001_0_0001_af2pred_0001 (protein)
chain: SSSSSDLERSFRFLEDALRLIRELGDEERLKLTFRFMEFDIRAANNEELLKELEELKKELSSSSS
B32: il10ra_site1_sap_19_mot_HHH_b1_08697_af2_000000298_0001_1_18_H_._HHH_b1_07925_0001_0000300029_0000001_0_0001_af2pred_0001 (protein)
chain: SSSSSRLERSVELLLRSAELAYEEGDPELAEISLEEALLVAEEANNPELHELVKRILEELGSSSS
B33: il10ra_site1_normal_mot_HHH_b2_00475_000000107_0001_44_57_H_._HHH_b1_06647_af2_0001_0000500026_0000001_0_af2pred_dldesign_0_af2pred (protein)
chain: SSSSKEQEVVQLIHDAVRLLDQGRPEEALAALEEAEKLAKELKDEELIAAVEKARRFVESQSSSS
B34: il10ra_site1_normal_mot_8756ee2cf497b5429c717dfc0c0bcfd6_0001_000000186_0001_1_13_H_._HHH_b1_03047_af2_0001_0000300019_0000001_1 (protein)
chain: SSSSSAQEVIELIRRAARLEHEGNPEEARKLLEEAEELAEKLGNDVLLAQIRYLERIIENSSSSS
B35: il10ra_site1_sap_21_mot_HHH_b1_08622_000000192_0001_23_40_H_._HHH_b1_05218_0001_0000500032_0000001_0_0001_af2pred_0001 (protein)
chain: SSSSSSEVEELIREAQEAAEEQGDEEARLLLEFLERAFKLGVASERTAEASARNLLKLLGSSSSS
B36: il10ra_site1_normal_mot_HHH_b2_00277_af2_000000172_0001_1_17_H_._HHH_b2_06211_0001_0000100010_0000002_0 (protein)
chain: SSSSSDVEERIEELLEEAKHIPDRAHRTYVLIEAYALAHQLGNPEILEEVREVAIRLAERSSSSS
B37: il10ra_site1_normal_mot_HHH_b2_02337_000000026_0001_38_52_H_._HHH_b2_01645_0001_0000100007_0000001_0 (protein)
chain: SSSSSDEEEEEVERLLERAEKVEDPREFAELALRALRIAWEINNEELLREIWRLVQEWGSSSSSS

Each binder was assayed against il10ra, Q13651 (assay: yeast display titration).

Apparent Kd, inactive:
B1 no binding seen, B2 no binding seen, B3 no binding seen, B4 no binding seen, B5 no binding seen, B6 no binding seen, B7 no binding seen, B8 no binding seen, B9 no binding seen, B10 no binding seen, B11 no binding seen, B12 no binding seen, B13 no binding seen, B14 no binding seen, B15 no binding seen, B16 no binding seen, B17 no binding seen, B18 no binding seen, B19 no binding seen, B20 no binding seen, B21 no binding seen, B22 no binding seen, B23 no binding seen, B24 no binding seen, B25 no binding seen, B26 no binding seen, B27 no binding seen, B28 no binding seen, B29 no binding seen, B30 no binding seen, B31 no binding seen, B32 no binding seen, B33 no binding seen, B34 no binding seen, B35 no binding seen, B36 no binding seen, B37 no binding seen
